The text below walks through data of publication PMC12890474.

Amino acid sequences for entries named in this document (tags omitted). Residues count along the entry.
UniProt Q9Z351: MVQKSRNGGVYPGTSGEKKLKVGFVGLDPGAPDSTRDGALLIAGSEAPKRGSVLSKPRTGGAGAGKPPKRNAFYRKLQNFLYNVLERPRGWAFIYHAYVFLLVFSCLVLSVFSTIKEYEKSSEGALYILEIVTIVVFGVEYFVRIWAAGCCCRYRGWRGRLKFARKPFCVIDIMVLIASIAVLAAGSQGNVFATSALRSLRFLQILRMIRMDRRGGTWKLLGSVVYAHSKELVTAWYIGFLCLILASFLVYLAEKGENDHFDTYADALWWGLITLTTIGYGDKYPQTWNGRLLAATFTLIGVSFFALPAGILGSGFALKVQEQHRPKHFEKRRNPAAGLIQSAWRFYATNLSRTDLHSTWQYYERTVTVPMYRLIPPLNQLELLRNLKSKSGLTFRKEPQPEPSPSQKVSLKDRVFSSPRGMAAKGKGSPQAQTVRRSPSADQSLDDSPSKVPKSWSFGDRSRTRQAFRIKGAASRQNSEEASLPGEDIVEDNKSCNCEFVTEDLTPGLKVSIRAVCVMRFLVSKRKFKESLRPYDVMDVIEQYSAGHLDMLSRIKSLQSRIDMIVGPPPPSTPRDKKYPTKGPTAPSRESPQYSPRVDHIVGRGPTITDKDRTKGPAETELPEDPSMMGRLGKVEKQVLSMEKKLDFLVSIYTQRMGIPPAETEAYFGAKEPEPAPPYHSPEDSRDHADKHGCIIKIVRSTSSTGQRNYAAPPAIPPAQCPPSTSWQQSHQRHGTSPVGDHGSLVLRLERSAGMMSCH
UniProt A2AG50: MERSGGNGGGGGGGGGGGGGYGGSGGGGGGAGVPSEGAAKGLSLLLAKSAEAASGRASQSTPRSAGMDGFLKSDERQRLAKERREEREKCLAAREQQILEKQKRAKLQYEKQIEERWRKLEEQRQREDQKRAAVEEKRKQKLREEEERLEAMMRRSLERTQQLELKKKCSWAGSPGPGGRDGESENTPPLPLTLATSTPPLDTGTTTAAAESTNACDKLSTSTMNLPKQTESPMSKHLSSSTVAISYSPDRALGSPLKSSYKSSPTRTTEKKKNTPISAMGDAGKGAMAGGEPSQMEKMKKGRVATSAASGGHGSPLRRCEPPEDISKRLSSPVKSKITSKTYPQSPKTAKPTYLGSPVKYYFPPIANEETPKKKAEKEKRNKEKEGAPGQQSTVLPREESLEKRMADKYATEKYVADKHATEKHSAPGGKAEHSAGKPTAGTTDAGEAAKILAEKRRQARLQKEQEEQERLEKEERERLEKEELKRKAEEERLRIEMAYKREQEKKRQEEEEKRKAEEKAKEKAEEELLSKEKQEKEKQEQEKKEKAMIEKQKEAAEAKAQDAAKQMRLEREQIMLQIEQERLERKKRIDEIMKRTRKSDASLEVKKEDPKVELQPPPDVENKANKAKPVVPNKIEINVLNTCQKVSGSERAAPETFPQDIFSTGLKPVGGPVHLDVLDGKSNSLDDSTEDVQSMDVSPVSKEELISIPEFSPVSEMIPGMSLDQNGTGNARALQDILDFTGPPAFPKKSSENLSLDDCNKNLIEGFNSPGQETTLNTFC
UniProt Q8CJ19: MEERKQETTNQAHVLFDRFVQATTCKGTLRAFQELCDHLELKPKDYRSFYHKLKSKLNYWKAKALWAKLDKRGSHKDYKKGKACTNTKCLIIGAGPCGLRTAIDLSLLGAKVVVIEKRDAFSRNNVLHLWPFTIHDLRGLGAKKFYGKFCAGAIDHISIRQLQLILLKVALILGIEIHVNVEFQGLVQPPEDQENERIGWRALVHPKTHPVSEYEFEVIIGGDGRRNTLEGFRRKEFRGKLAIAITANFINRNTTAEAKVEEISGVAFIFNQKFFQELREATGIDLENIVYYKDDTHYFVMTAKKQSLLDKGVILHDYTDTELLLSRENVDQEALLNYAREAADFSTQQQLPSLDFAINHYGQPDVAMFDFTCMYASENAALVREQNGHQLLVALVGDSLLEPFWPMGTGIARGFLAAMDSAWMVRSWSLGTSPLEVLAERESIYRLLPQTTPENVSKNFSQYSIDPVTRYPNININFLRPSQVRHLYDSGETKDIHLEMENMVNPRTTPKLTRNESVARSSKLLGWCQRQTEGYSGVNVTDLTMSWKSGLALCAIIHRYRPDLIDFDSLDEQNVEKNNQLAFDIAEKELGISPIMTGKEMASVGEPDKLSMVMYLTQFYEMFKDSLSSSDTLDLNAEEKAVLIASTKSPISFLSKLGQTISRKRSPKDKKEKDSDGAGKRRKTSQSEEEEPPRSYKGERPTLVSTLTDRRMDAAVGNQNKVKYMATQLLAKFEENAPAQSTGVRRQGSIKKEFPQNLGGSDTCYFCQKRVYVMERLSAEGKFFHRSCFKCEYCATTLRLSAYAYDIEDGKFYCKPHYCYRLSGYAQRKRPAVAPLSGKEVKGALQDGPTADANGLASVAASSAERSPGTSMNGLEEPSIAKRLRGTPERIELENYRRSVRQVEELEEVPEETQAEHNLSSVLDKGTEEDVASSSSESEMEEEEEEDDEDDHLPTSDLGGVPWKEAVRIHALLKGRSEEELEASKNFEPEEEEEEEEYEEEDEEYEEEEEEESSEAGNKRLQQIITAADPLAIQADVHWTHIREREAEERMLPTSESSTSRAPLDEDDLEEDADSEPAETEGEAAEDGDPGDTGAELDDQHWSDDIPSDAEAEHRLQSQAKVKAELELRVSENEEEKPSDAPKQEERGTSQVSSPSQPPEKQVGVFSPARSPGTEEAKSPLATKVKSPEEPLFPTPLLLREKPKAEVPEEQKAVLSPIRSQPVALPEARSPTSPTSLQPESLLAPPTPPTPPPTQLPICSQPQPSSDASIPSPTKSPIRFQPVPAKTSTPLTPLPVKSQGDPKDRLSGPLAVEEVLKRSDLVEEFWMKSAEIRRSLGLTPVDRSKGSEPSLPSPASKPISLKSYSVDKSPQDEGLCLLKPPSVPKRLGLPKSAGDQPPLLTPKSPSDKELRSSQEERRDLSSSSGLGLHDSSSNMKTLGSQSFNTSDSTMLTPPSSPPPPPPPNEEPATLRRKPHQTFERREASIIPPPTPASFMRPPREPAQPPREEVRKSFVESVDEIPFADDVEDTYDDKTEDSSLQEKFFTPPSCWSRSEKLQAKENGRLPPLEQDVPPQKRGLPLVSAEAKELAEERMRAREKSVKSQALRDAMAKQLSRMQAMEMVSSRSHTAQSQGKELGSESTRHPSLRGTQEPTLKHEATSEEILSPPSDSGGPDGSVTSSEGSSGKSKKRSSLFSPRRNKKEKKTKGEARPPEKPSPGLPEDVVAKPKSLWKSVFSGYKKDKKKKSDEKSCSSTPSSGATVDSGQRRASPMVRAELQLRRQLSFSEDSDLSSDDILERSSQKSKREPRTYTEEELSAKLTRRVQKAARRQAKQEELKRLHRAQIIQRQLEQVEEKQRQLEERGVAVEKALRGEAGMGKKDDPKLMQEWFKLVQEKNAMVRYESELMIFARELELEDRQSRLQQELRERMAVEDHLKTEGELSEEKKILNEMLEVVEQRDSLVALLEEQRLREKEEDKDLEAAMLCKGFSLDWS
UniProt P97952, residues 19-218: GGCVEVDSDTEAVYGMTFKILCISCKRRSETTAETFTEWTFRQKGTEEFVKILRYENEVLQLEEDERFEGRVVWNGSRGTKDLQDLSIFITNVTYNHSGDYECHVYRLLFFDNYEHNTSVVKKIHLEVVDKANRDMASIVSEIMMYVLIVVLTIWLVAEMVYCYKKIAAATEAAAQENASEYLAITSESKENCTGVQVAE

No constants are given. Whether binding was seen depends on the method and setting. In cells and extracts the contact can be indirect. Here binding means that the protein was enriched with, or labelled near, the bait; the list need not be complete. A no says only that the protein was not detected with the bait.

T1: TurboID-FGF13S (human) (UniProt Q92913)
T1 sequence: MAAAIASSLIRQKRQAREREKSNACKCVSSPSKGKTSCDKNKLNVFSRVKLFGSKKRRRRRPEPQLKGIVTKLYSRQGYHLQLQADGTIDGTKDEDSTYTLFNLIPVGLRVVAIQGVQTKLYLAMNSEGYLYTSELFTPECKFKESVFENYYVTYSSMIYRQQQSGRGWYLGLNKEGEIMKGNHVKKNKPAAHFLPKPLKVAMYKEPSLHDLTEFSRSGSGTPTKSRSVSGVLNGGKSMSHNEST

B1: BTBD17 (protein, UniProt Q9DB72 29-478)
chain: AQRADVGGEAAGTAINHSHMLLQRLQDLLRQGNASDVILRVQAVGTDEVRAFHTHRLLLGLHSELFRELLSNQSEVMLRESRDCAAVFDKFIRYLYCGELTVLLAQAIPLHRLATKYRVASLQRGVADYMRAHLAGGVGPAVGWYHYAVSTGDEALRESCLQFLAWNLSAVAGSAEWGAVSPELLAQLLQRSDLVLQDELELFHALEAWLGRARPPPTVAERALRAIRYPMIPPAQLFQLQARSAALARHGPAVADLLLQAYQFHAASPLHYAKFFHVNGSAFLPRNYLAPAWGAPWVINNPARDDRSTSFQTQLGPSGHDAGRRITWNVLFSPRWLPVSLRPVYADAAGTALPAARPEDGRPRLVVTPASSGGDAAGVSFQKTVLVGARHQGRLLVRHAYSFHQSSEEAGDFLAHADLQRRNSEYLVENALHLHLIVKPVYHTLIRTPS
B2: TEC kinase (enzyme, UniProt P24604 1-630)
chain: MNFNTILEEILIKRSQQKKKTSLLNYKERLCVLPKSVLSYYEGRAEKKYRKGVIDISKIKCVEIVKNDDGVIPCQNKFPFQVVHDANTLYIFAPSPQSRDRWVKKLKEEIKNNNNIMIKYHPKFWADGSYQCCRQTEKLAPGCEKYNLFESSIRKTLPPAPEIKKRRPPPPIPPEEENTEEIVVAMYDFQATEAHDLRLERGQEYIILEKNDLHWWRARDKYGSEGYIPSNYVTGKKSNNLDQYEWYCRNTNRSKAEQLLRTEDKEGGFMVRDSSQPGLYTVSLYTKFGGEGSSGFRHYHIKETATSPKKYYLAEKHAFGSIPEIIEYHKHNAAGLVTRLRYPVSTKGKNAPTTAGFSYDKWEINPSELTFMRELGSGLFGVVRLGKWRAQYKVAIKAIREGAMCEEDFIEEAKVMMKLTHPKLVQLYGVCTQQKPIYIVTEFMERGCLLNFLRQRQGHFSRDMLLSMCQDVCEGMEYLERNSFIHRDLAARNCLVNEAGVVKVSDFGMARYVLDDQYTSSSGAKFPVKWCPPEVFNYSRFSSKSDVWSFGVLMWEIFTEGRMPFEKNTNYEVVTMVTRGHRLHRPKLATKYLYEVMLRCWQERPEGRPSLEDLLRTIDELVECEETFGR
B3: KV2.2 (protein, UniProt A6H8H5 1-907)
chain: MAEKAPPGLNRKTSRSTLSLPPEPVDIIRSKTCSRRVKINVGGLNHEVLWRTLDRLPRTRLGKLRDCNTHESLLEVCDDYNLNENEYFFDRHPGAFTSILNFYRTGKLHMMEEMCALSFGQELDYWGIDEIYLESCCQARYHQKKEQMNEELRREAETMREREGEEFDNTCCPEKRKKLWDLLEKPNSSVAAKILAIVSILFIVLSTIALSLNTLPELQENDEFGQPSDNRKLAHVEAVCIAWFTMEYLLRFLSSPNKWKFFKGPLNVIDLLAILPYYVTIFLTESNKSVLQFQNVRRVVQIFRIMRILRILKLARHSTGLQSLGFTLRRSYNELGLLILFLAMGIMIFSSLVFFAEKDEDATKFTSIPASFWWATITMTTVGYGDIYPKTLLGKIVGGLCCIAGVLVIALPIPIIVNNFSEFYKEQKRQEKAIKRREALERAKRNGSIVSMNLKDAFARSMELIDVAVEKAGESANTKDSVDDNHLSPSRWKWARKALSETSSNKSYENKYQEVSQNDSHEHLNNTSSSSPQHLSAQKLEMLYNEITKTQPHSHPNPDCQEQPERPCVYEEEIEMEEVICPQEQLAVAQTEVIVDMKSTSSIDSFTSCATDFTETERSPLPPPSASHLQMKFPTDLPGTDEHQRARAPPFLTLSRDKGPAAREAAVDYAPIDITVNLDAGASHGPLQPDSASDSPKSSLKGSNPLKSRSLKVNFQENRASAPQTPPSTARPLPVTTADFPLTTPQHMSTILLEEALPQGQPPLLEADDSAHCQGPSKGFSPRFPKQKLFPFSSRERRSFTEIDTGEDEDFLDLQRSRPDKQADPSPNCLADKPGDARDSLREEGCVGSSSPQNTDHNCRQDIYQAVGEVKKDSSQEGYKMENHLFAPEIHSNPGDTGHCPTRETSM

For this assay, the target named is T1, TurboID-FGF13S (human). The assay can be described thus: proximity labelling; in vivo TurboID: NtTA/TurboID-FGF13S double-transgenic mice injected with biotin daily for 3 days (control 10% DMSO); whole-brain lysate, biotinylated proteins captured on streptavidin magnetic beads, quantitative DIA mass spectrometry; enriched = P < 0.05 and log2(biotin/DMSO) > 1.
Consider APOB (from UniProt E9Q414 28-4505), for which the binding result was “no binding”.
Next, KCNQ2 (from UniProt Q9Z351 1-759): “binds”; MAP7D2 (from UniProt A2AG50 1-781): “binds”; MICAL3 (from UniProt Q8CJ19 1-1993): “binds”.
Regarding “Sodium channel regulatory subunit β1 (from UniProt P97952 19-218)”, the binding result is on record as “no binding”.
In the case of B1, the binding result was “no binding”.
Next, B2: “no binding”; B3: “binds”.
